# Literature values in patent publication US11612574B2 (priority 2020, dated 2023).
# Test system: SARS-CoV-2
# Details: cited from earlier work
smiles,measurement,value
CN1CCC[C@@H]1CCO[C@](C)(c1ccccc1)c1ccc(Cl)cc1 [clemastine],inhibition of SARS-CoV-2 in vitro,inhibit
